# Reference: paper PMC7017148
# Results are given in words; binding and its absence hold for the method and conditions named. Binding seen in cells or lysates may run through a third protein.
# Target: T1, E3 ubiquitin-ligase Hakai (human (endogenous in HEK293T, ACHN, HT29, HCT116)) (UniProt Q75N03)
# T1 sequence: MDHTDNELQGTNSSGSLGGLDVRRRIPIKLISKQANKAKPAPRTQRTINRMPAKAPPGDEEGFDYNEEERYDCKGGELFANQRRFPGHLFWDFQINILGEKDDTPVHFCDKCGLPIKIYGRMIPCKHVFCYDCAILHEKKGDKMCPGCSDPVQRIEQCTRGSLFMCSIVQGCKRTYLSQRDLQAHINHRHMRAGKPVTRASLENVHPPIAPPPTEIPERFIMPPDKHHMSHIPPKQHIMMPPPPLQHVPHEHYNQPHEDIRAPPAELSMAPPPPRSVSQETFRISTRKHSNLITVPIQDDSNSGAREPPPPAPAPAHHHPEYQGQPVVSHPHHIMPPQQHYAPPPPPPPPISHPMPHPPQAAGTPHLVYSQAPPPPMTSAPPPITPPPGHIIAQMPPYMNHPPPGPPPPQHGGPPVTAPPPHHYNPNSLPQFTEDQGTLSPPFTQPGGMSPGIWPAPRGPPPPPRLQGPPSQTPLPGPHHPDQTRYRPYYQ
# Experiment: co-IP; endogenous proteins; whole cell extracts (HEK293T, ACHN, HT29, HCT116) in 1% Triton X-100 buffer (20 mM Tris-HCl pH 7.5, 150 mM NaCl); antibody (Hakai, Hsp90 or Annexin A2) or control IgG on Protein A or Protein G PLUS agarose, 2 h at 4 °C; western blot
substance,measurement,value
Hsp70,binding,no binding
